Reference: PubChem BioAssay AID504467 (National Center for Advancing Translational Sciences (NCATS), 2011)
Among all 330,000 compounds or so, about 7,700 (2.3%) were called active. Inconclusive results, whose numbers are uncertain, are shown with a selection of clear calls. Calls follow the shape of the dose curve; as a rule, active = well fitted inhibition curve with a large enough effect; inconclusive = small, poorly fitted or top-dose-only effect, or effect the other way; inactive = flat fitted curve, though single readings scatter. Where the call is inconclusive, the potency comes from a doubtful curve fit.

Test: qHTS screen for small molecules that inhibit ELG1-dependent DNA repair in human embryonic kidney (HEK293T) cells expressing luciferase-tagged ELG1; also: nearly all actives have a fitted effect of over 55% in size
Conditions: HEK293T ELG1-luciferase reporter, luminescence, 16 h, DNA damage induced by 5-fluorouridine; series mostly up to 46.1 µM
In short: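 In this reporter screen, reduction of luminescence relative to DMSO vehicle indicated activity. Compounds and 5-fluorouridine were added together to 2,000 cells per well, incubated for 16 hr at 37 °C, then developed with ONE-Glo.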
Potency is read from the fitted curve at half-maximal effect.

Row | Structure (SMILES) | Potency
1 | CC1(C)CC(=O)C2=C(C1)N(Cc1ccco1)C(=O)C2(NC(=O)C1CCCCC1)C(F)(F)F (stereo unspecified) | inconclusive: 18.4 µM [inhibitor, single point]
2 | COc1ccc(-c2nc3cc([N+](=O)[O-])ccc3o2)cc1 | inconclusive: 2.31 µM [activator, full curve]
3 | COc1ccc(C2=NN(C(=O)CSc3nnc(-c4ccccc4F)o3)C(c3ccco3)C2)cc1 (stereo unspecified) | inconclusive: 32.6 µM [inhibitor, single point]
4 | COc1ccc(N(CC(=O)N2CCCC(C)C2)S(=O)(=O)c2c(C)nn(C)c2C)cc1 (stereo unspecified) | inactive
5 | CC1CN(c2ncnc3c2c(-c2ccccc2)cn3-c2ccc(F)cc2)CC(C)O1 (stereo unspecified) | inconclusive: 29.1 µM [inhibitor, single point]
6 | O=C(NC1CC(=O)c2sccc21)c1ccc(Cl)cc1Cl (stereo unspecified) | inconclusive: 16.4 µM [activator, partial curve]
7 | O=C(N/N=C/c1cccc(O)c1)c1ccc(NC(=O)c2cccc([N+](=O)[O-])c2)cc1 | inconclusive: 10.3 µM [inhibitor, partial curve]
8 | O=c1cccc2n1Cc1cc3ccccc3nc1-2 | inconclusive: 16.4 µM [activator, partial curve]
9 | COc1cccc(C2CC(=O)Nc3cc4c(cc32)CCC4)c1 (stereo unspecified) | inactive
10 | Cc1cc(N2CCOCC2)nc(-c2ccc(Br)cc2)n1 | inconclusive: 25.9 µM [inhibitor, single point]
11 | CN(C)c1nc(Nn2cnnc2)nc(N(C)C)n1 | inconclusive: 29.1 µM [activator, partial curve, poor fit]
12 | O=C(Nc1nccs1)c1ccc(COc2ccccc2Br)o1 | inactive
13 | Cc1ccc(Nc2ncnc3sc(C)c(C)c23)cc1 | inconclusive: 11.6 µM [activator, partial curve]
14 | O=C(NCc1ccco1)/C(=C\c1cccnc1)NC(=O)c1ccccc1F | inactive
15 | CCn1c(=O)n(CC)c2cc(N3CCCC3)c(NC(=O)c3c(F)cccc3F)cc21 | inconclusive: 29.1 µM [inhibitor, single point]
16 | Cc1cccc(C)c1OCc1cc(C(=O)N2CCN(C3CCCC3)CC2)no1 | inconclusive: 10.3 µM [activator, partial curve]
17 | C=CCc1c(C)nc(C)nc1N/N=C/c1ccc([N+](=O)[O-])cc1 | inconclusive: 25.9 µM [inhibitor, partial curve, poor fit]
18 | Cc1ccc(C)c(Cn2c(=O)n(CCCC(=O)NCc3ccco3)c(=O)c3sccc32)c1 | inconclusive: 20.6 µM [inhibitor, partial curve]
19 | O=S(=O)(c1cccs1)N1CN(Cc2ccco2)c2nc3ccccc3nc21 | inconclusive: 20.6 µM [activator, single point]
20 | COc1ccc(CC(=O)N/N=C/c2cc([N+](=O)[O-])cc(Br)c2O)cc1 | inconclusive: 29.1 µM [inhibitor, single point]
21 | O=c1c2ccc([N+](=O)[O-])cc2ncn1CCOc1ccc(Cl)cc1 | inconclusive: 20.6 µM [inhibitor, single point]
22 | COc1cccc(OCc2cc(C(=O)NC(C)c3cnn(C)c3C)no2)c1 (stereo unspecified) | inconclusive: 20.6 µM [activator, partial curve]
23 | Cc1cccc(C)c1N(CC(=O)NC1CCCCC1)C(=O)c1csnn1 | inactive
24 | CN(C)S(=O)(=O)N1CCC(CO)(Cc2cccc(C(F)(F)F)c2)CC1 | inconclusive: 29.1 µM [inhibitor, single point]

A portion taken from the entries so far, as a working copy:
Row | Structure (SMILES) | Potency
15 | CCn1c(=O)n(CC)c2cc(N3CCCC3)c(NC(=O)c3c(F)cccc3F)cc21 | inconclusive: 29.1 µM [inhibitor, single point]
16 | Cc1cccc(C)c1OCc1cc(C(=O)N2CCN(C3CCCC3)CC2)no1 | inconclusive: 10.3 µM [activator, partial curve]

Quoted at random: 2 entries already listed, in no set order.
Row | Structure (SMILES) | Potency
1 | CC1(C)CC(=O)C2=C(C1)N(Cc1ccco1)C(=O)C2(NC(=O)C1CCCCC1)C(F)(F)F (stereo unspecified) | inconclusive: 18.4 µM [inhibitor, single point]
13 | Cc1ccc(Nc2ncnc3sc(C)c(C)c23)cc1 | inconclusive: 11.6 µM [activator, partial curve]

Going on with the list:

Row | Structure (SMILES) | Potency
25 | CCC1(C)N=C(c2ccc3c(c2)OCO3)CC(c2ccccc2O)N1 (stereo unspecified) | inconclusive: 18.4 µM [activator, partial curve]
26 | O=C(CCCn1c(=S)[nH]c2ccsc2c1=O)NCCc1ccccc1 | inconclusive: 18.3 µM [activator, partial curve, poor fit]
27 | COc1ccc2c(CC(=O)N(C)CC3COc4ccccc4O3)coc2c1 (stereo unspecified) | inconclusive: 20.6 µM [inhibitor, single point]
28 | CCn1c(SCC(=O)OC)nnc1-c1c[nH]c2ccccc12 | inactive
29 | Cc1ccc(OCC(=O)N2CCc3ccccc32)c([N+](=O)[O-])n1 | inconclusive: 29.1 µM [activator, single point]
30 | O=C(COc1ccc(Br)cc1Cl)NNC(=O)c1ccccc1 | inactive
31 | CN1CCC=C(C(=O)N2c3ccccc3Sc3ccc(Cl)cc32)C1 | inactive
32 | COc1ccc(-c2cc(C(=O)N(C)Cc3ccccc3)c3ccccc3n2)cc1 | active: 23.1 µM
33 | CCOC(=O)c1cnn(-c2nc3sc4c(c3c(=O)[nH]2)CCCC4)c1N | inactive
34 | O=C(NC12CC3CC(CC(C3)C1)C2)C1CCCN1C(=O)NC1CCCCC1 (stereo unspecified) | inconclusive: 29.1 µM [activator, partial curve, poor fit]
35 | CCCCOc1ccc(C(=O)Nc2ccc(OCC(=O)N3CCOCC3)cc2)cc1 | inconclusive: 10.3 µM [activator, partial curve]
36 | Cc1ccc(S(=O)(=O)N(c2cccc(C(F)(F)F)c2)C2C=CS(=O)(=O)C2)cc1 (stereo unspecified) | inactive
37 | Cc1ccc(/C=N/Nc2nc(N3CCOCC3)nc(N3CCOCC3)n2)o1 | inconclusive: 18.3 µM [inhibitor, single point]
38 | COC(=O)Sc1nc(N2CCOCC2)c2c(c1C#N)CC(C)(C)OC2 | inconclusive: 16.4 µM [inhibitor, single point]
39 | C(=N\Nc1nc(Nc2ccccc2)nc(Nc2ccccc2)n1)/c1cccnc1 | active: 6.51 µM
40 | CC(C)(C)NC(=O)CN(C(=O)CCC(=O)Nc1nccs1)c1cccc(C(F)(F)F)c1 | inconclusive: 0.562 µM [activator, single point]
41 | CCOC(=O)c1sc2c(c1C)c(=O)c(C(=O)OCC)cn2CC | inconclusive: 14.6 µM [inhibitor, partial curve, poor fit]
42 | CC(C)Sc1nc2ccc(N3C(=O)C4CCCCC4C3=O)cc2s1 (stereo unspecified) | inconclusive: 16.4 µM [activator, partial curve]
43 | COc1ccc(/C=N/NC(=O)c2ccc(=O)n(C)c2)cc1OC | inconclusive: 29.1 µM [activator, single point]
44 | COc1ccccc1-c1nnc(SCC(=O)NCc2ccco2)n1N | inactive
45 | Cc1ccc2nsnc2c1NC(=O)Cc1ccc(Cl)cc1 | inactive
46 | COCCn1c(SCC(=O)Nc2ccc(Cl)c(S(=O)(=O)N(C)C)c2)nc2ccccc21 | active: 18.4 µM
47 | COc1ccc(C(=O)COC(=O)c2cnc(C)cn2)c(OC)c1 | inconclusive: 0.651 µM [inhibitor, full curve]
48 | CCC(=O)NCCc1nc2cc(NC(=O)COc3ccccc3)ccc2n1C | inconclusive: 16.4 µM [activator, partial curve]

Row | Structure (SMILES) | Potency
49 | N/C(=N/OC(=O)c1cccc([N+](=O)[O-])c1)c1cccc([N+](=O)[O-])c1 | inconclusive: 20.6 µM [activator, partial curve]
50 | O=C(Nc1ccnn1C1CCN(C(=O)c2cccc(Cl)c2)CC1)C1CC1 | inconclusive: 8.2 µM [activator, partial curve, poor fit]
51 | COc1ccc(CN2CCSCC2)cc1C | inconclusive: 18.4 µM [activator, partial curve]
52 | COc1ccccc1CN1CCN(C(CC(C)C)c2nnnn2Cc2cccs2)CC1 (stereo unspecified) | inactive
53 | Cc1c(NC(=S)N/N=C/c2cccc(O)c2)c(=O)n(-c2ccccc2)n1C | inactive
54 | CCN(CC)CCN(Cc1cc2cc(C)c(C)cc2[nH]c1=O)C(=S)NCc1ccco1 | inactive
55 | Cc1cc2nc(-c3ccc(SCC(=O)NC(C)C)nc3)[nH]c2cc1C | inconclusive: 2.59 µM [activator, partial curve]
56 | OC1CCCN(CC(O)COc2ccc(-c3ccccc3)cc2)C1 (stereo unspecified) | inconclusive: 29.1 µM [activator, single point]
57 | COc1ccc(-n2ncc3c(N4CCCc5ccccc54)ncnc32)cc1 | inconclusive: 2.06 µM [activator, full curve]
58 | COc1ccc(NC(=S)Nc2ccccc2C(F)(F)F)cc1 | inactive
59 | CCOC(=O)c1sc2nc(SC)nc(-c3ccc(Cl)cc3)c2c1N | inactive
60 | Cc1cccc(N2CCN(C(=O)c3ccc4nc[nH]c4c3)CC2)c1C | inactive
61 | CN1C(=O)N(CC(=O)N2CCN(c3ccccc3F)CC2)C(=O)C12CCCCC2 | inactive
62 | COc1cc(/C=C2/C(=O)NN(c3ccc(C)c(Cl)c3)C2=O)cc([N+](=O)[O-])c1O | inactive
63 | COc1ccc(NC(=O)c2c(Cl)n(C)c3ccccc23)cc1 | inconclusive: 9.2 µM [activator, single point]
64 | O=c1[nH]c2cc3c(cc2cc1CN(CCc1ccccc1)Cc1nnnn1CC1CCCO1)OCO3 (stereo unspecified) | inactive
65 | O=C(N/N=C/c1cc2cc3c(cc2nc1Cl)OCO3)c1ccncc1 | inconclusive: 29.1 µM [inhibitor, partial curve, poor fit]
66 | CN1CCCNc2nc3ccccc3nc21 | inconclusive: 20.6 µM [activator, partial curve, poor fit]
67 | COc1ccccc1C(=O)NC(=S)N1CCc2ccccc21 | inactive
68 | CC(=O)c1ccc(N/C=C\C(=O)c2ccc(C)cc2)cc1 | inconclusive: 6.51 µM [activator, partial curve]
69 | O=[N+]([O-])c1ccc(-c2c(O)c3ccccc3c3nc4ccccc4nc23)cc1 | active: 23.1 µM
70 | CCCCS(=O)(=O)N1CCN(S(=O)(=O)c2cccs2)CC1 | inactive
71 | CC1CCc2c(sc(NC(=O)c3ccco3)c2C(=O)O)C1 (stereo unspecified) | inconclusive: 23.1 µM [activator, partial curve]
